{
  "sequences": {"note": "Amino acid sequences for entries named in this document (tags omitted).", "UniProt Q0JBA9, entry or part of it": "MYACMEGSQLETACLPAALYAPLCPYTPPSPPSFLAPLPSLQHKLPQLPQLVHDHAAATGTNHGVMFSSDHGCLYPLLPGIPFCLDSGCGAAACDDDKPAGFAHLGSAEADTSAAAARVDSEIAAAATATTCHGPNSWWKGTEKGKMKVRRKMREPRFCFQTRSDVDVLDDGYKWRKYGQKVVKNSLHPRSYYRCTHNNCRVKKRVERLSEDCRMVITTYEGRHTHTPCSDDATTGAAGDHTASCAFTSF"},
  "source": "paper PMC7819943",
  "about": "“Rice protein-binding microarrays: a tool to detect cis-acting elements near promoter regions in rice”",
  "note": "The list shows a part of the results.",
  "data": [
    {"molecular_target": "OsWRKY34 (Oryza sativa, UniProt Q0JBA9 1-250)", "experiment": "protein-binding microarray (RPBM); PBS, 2% BSA, 51.3 ng/ul salmon testes DNA, 50 uM zinc acetate, 200 nM TF, 25 C, 1 h; high values mean tight binding", "conditions": "protein: recombinant; tags: N-terminal polyhistidine and DsRed monomer fusion (pET32a); label: CyDye5-dUTP incorporated in the synthesized complementary strand; 3' TTTTT single-stranded linker to array surface; dsDNA, one strand shown", "method_in_brief": "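Binding signal here means per-feature fluorescence intensity in arbitrary units. The values were read on an Axon 4000B scanner after a custom Agilent array, double-stranded by primer extension with Cy5-dUTP, was incubated with 200 nM protein at 25 °C for 1 h in PBS with 2% BSA, salmon testes DNA and 50 µM zinc acetate, then washed. The proteins were transcription factors with an N-terminal polyhistidine tag and DsRed, expressed in E. coli BL21-CodonPlus and purified on Ni–NTA.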", "values": [
      {"sequence": "ACATGAGGTCATAGGTTTAACTGTCTGACTTCTCTATTTTCGGAGTCACCTAGTGCAG", "binding signal": "8370 fluorescence intensity (a.u.)"},
      {"sequence": "GCTACTTTTTTCAAACGCGTTCCGTTTCTTTTTTGTTTTTCGGAGTCACCTAGTGCAG", "binding signal": "13200 fluorescence intensity (a.u.)"},
      {"sequence": "TTCATCATCAAATTCCCAATTTCTTCGGTCGCGACGCCGACGGAGTCACCTAGTGCAG", "binding signal": "8040 fluorescence intensity (a.u.)"},
      {"sequence": "AATAGTTAATATGTCTGTTGTAACGGGATCCCATTTTATACGGAGTCACCTAGTGCAG", "binding signal": "8800 fluorescence intensity (a.u.)"},
      {"sequence": "AAGGAGAGGAGTAGGGTGCGGGGACTAGGGTTACGACGGCCGGAGTCACCTAGTGCAG", "binding signal": "8470 fluorescence intensity (a.u.)"},
      {"sequence": "TCGAATTTGGCCCATATTAGTTAGCGGTGCAGCACCGTTCCGGAGTCACCTAGTGCAG", "binding signal": "8300 fluorescence intensity (a.u.)"},
      {"sequence": "GCATATCGGCGCTCCCCGACGACCTCATCCAGCGCATCCTCGGAGTCACCTAGTGCAG", "binding signal": "10100 fluorescence intensity (a.u.)"},
      {"sequence": "CATTTCTTTACTACTACCATACCATCTCCCTGCGTGCGTTCGGAGTCACCTAGTGCAG", "binding signal": "10800 fluorescence intensity (a.u.)"},
      {"sequence": "CCGACCCCGGCTTCCTCCGCCGCTTCCAATCCCGCCACCGCGGAGTCACCTAGTGCAG", "binding signal": "11600 fluorescence intensity (a.u.)"},
      {"sequence": "CCTCATGCTCACTTTCATATAATATCTTCTTATTTTGAGTCGGAGTCACCTAGTGCAG", "binding signal": "8120 fluorescence intensity (a.u.)"},
      {"sequence": "ACAACAACCACAGCTACCTCTGCTCACATGCCAATTGAATCGGAGTCACCTAGTGCAG", "binding signal": "8580 fluorescence intensity (a.u.)"},
      {"sequence": "CCTTTGCTTCTCCTTTACTCTCTCTCTCTCTCTCTCTCTCCGGAGTCACCTAGTGCAG", "binding signal": "8450 fluorescence intensity (a.u.)"},
      {"sequence": "ATCAACCCGCAGTCCTAGGCCCATATGTCAGTGTGTTTCTCGGAGTCACCTAGTGCAG", "binding signal": "8540 fluorescence intensity (a.u.)"},
      {"sequence": "CCTTGTCTTCTCACCACCCATCATCAGGATCAGGTACTGCCGGAGTCACCTAGTGCAG", "binding signal": "9710 fluorescence intensity (a.u.)"},
      {"sequence": "CGTCGCGTTGCGTTGACTCCACACTCCGGCCAGCAACATGCGGAGTCACCTAGTGCAG", "binding signal": "10100 fluorescence intensity (a.u.)"},
      {"sequence": "ATAGTGTGTTTTTCTTTTCTCCATGTTGACAAATGTTCTACGGAGTCACCTAGTGCAG", "binding signal": "10700 fluorescence intensity (a.u.)"},
      {"sequence": "TCATGTACTCCGTATTTCAGGACATCCAAGTTTTTTTTTTCGGAGTCACCTAGTGCAG", "binding signal": "8280 fluorescence intensity (a.u.)"},
      {"sequence": "CAGCTCGACAGTCGGCAATACCACTGCCCAATCATTTTCACGGAGTCACCTAGTGCAG", "binding signal": "8330 fluorescence intensity (a.u.)"},
      {"sequence": "CTTACCTGCTATACGATTTTTTTTCATGTATTTATATATTCGGAGTCACCTAGTGCAG", "binding signal": "12500 fluorescence intensity (a.u.)"},
      {"sequence": "TGCAGCCCTTTTTTGTTACCAATGATGAACCTATTGAAACCGGAGTCACCTAGTGCAG", "binding signal": "10900 fluorescence intensity (a.u.)"},
      {"sequence": "AAGGTCTCGCTCTCACTCACCGACGTCACCGTTCCTTTATCGGAGTCACCTAGTGCAG", "binding signal": "10900 fluorescence intensity (a.u.)"},
      {"sequence": "TGAACTTGCTCTTTCACCTAATCCTCTTGCAGTTTTTCTACGGAGTCACCTAGTGCAG", "binding signal": "11800 fluorescence intensity (a.u.)"},
      {"sequence": "GCAAGCCACTATCTCGACCAAAAATTTTGGTTTTTCTCAACGGAGTCACCTAGTGCAG", "binding signal": "8110 fluorescence intensity (a.u.)"},
      {"sequence": "GGTGGTGGTGGTGGTGGTGGGGAAGAAGACCACACACATTCGGAGTCACCTAGTGCAG", "binding signal": "9290 fluorescence intensity (a.u.)"},
      {"sequence": "TGTGCGGGCTCGTCTTCCTCGCCGCTCGCTCGCTCGCCTCCGGAGTCACCTAGTGCAG", "binding signal": "8140 fluorescence intensity (a.u.)"},
      {"sequence": "GTGATTGATTCGATTGATTGCCGCATCCACAGTTCTTTTCCGGAGTCACCTAGTGCAG", "binding signal": "10400 fluorescence intensity (a.u.)"},
      {"sequence": "TCGTACGACGCGCACATCCACCCGCCGCTTTAAACCGCGCCGGAGTCACCTAGTGCAG", "binding signal": "8400 fluorescence intensity (a.u.)"},
      {"sequence": "GTGTCTAAGACCCTGTTTAGTTCTAATTTTTTTCCCAAAACGGAGTCACCTAGTGCAG", "binding signal": "8340 fluorescence intensity (a.u.)"},
      {"sequence": "TGTATCTTATCTTTCATAATTTTTGTTCTAGGCTCGTCATCGGAGTCACCTAGTGCAG", "binding signal": "8930 fluorescence intensity (a.u.)"},
      {"sequence": "GCTGTAGTTGCAGAAGCGCATGTATTACTTTTCATTTGAACGGAGTCACCTAGTGCAG", "binding signal": "8690 fluorescence intensity (a.u.)"},
      {"sequence": "TATTTTTCACATAGCAGACGTAATATTCCTCCACCATTTTCGGAGTCACCTAGTGCAG", "binding signal": "9490 fluorescence intensity (a.u.)"},
      {"sequence": "CGCCGCCGCCGCCGCCGCCGCTCACCGCAACGAGCATACTCGGAGTCACCTAGTGCAG", "binding signal": "10300 fluorescence intensity (a.u.)"},
      {"sequence": "GCATTTTATTTTTGACACTTAAATGGAATTCTTGGTGGGGCGGAGTCACCTAGTGCAG", "binding signal": "10000 fluorescence intensity (a.u.)"},
      {"sequence": "TTTTGTTTGCTTTGTTTGCTCTTCATCTAACGTAAAGGATCGGAGTCACCTAGTGCAG", "binding signal": "9150 fluorescence intensity (a.u.)"},
      {"sequence": "CTCGTTTGCTTGTTTTGCCTGTTTAGGTGGTAATGATAATCGGAGTCACCTAGTGCAG", "binding signal": "9050 fluorescence intensity (a.u.)"},
      {"sequence": "CTTTCTGATCACCAACTCCGCTCCTTTTAATCGCAACTACCGGAGTCACCTAGTGCAG", "binding signal": "9660 fluorescence intensity (a.u.)"},
      {"sequence": "TTCCCCACGATGTGGGTAGTATGGATTTTTTTTTCTGTTTCGGAGTCACCTAGTGCAG", "binding signal": "9350 fluorescence intensity (a.u.)"},
      {"sequence": "AGTTTTAAAATTTAAATTTTGGTTGGGTTGGCTGGTAAACCGGAGTCACCTAGTGCAG", "binding signal": "9840 fluorescence intensity (a.u.)"},
      {"sequence": "TTTTGAAGTCAAAGTTTCTGTAGCATAGCTGTCATCGTGTCGGAGTCACCTAGTGCAG", "binding signal": "8790 fluorescence intensity (a.u.)"},
      {"sequence": "TATGGCTAGCCAACGTGTATTTTTATAATTCCTTTTGTAGCGGAGTCACCTAGTGCAG", "binding signal": "8380 fluorescence intensity (a.u.)"},
      {"sequence": "GGCACGGTGCTCTACGACAATGAGTTCGCCGCCCATCCACCGGAGTCACCTAGTGCAG", "binding signal": "8640 fluorescence intensity (a.u.)"},
      {"sequence": "CCACCGATCAGTTTCTTCCATCCACCACGTCGCGGCCGCCCGGAGTCACCTAGTGCAG", "binding signal": "13800 fluorescence intensity (a.u.)"},
      {"sequence": "TCCGCCTCCGCCGCGCCGGCCGCCGATCTCCATCTCCTCGCGGAGTCACCTAGTGCAG", "binding signal": "8940 fluorescence intensity (a.u.)"},
      {"sequence": "ATCCCTTCGATTTTTACATGTCATCTAAATAGTTATTAATCGGAGTCACCTAGTGCAG", "binding signal": "8410 fluorescence intensity (a.u.)"},
      {"sequence": "CTTGATTACCCCGTAGTCAGGTTTGTATGACTAAGCAACCCGGAGTCACCTAGTGCAG", "binding signal": "8980 fluorescence intensity (a.u.)"},
      {"sequence": "CCCGCTGGTGCACTTCAACGCTACTCCTCTTCGCCGCCAACGGAGTCACCTAGTGCAG", "binding signal": "9270 fluorescence intensity (a.u.)"},
      {"sequence": "TATGTTTGGTCTGTTTGTAGTGTTTGAGAATCCTACGTATCGGAGTCACCTAGTGCAG", "binding signal": "9460 fluorescence intensity (a.u.)"},
      {"sequence": "AAATATGTGGGTTTTTTTATTGCAATGAAATATTTCAGTTCGGAGTCACCTAGTGCAG", "binding signal": "8390 fluorescence intensity (a.u.)"},
      {"sequence": "ACCTTCGTTTTGTTCTAAGTTACTTCTATAATATATGTAACGGAGTCACCTAGTGCAG", "binding signal": "10600 fluorescence intensity (a.u.)"},
      {"sequence": "GGATGTCTGTGTTCCTTCAATTTTGTTTTTCTGGTTGGGGCGGAGTCACCTAGTGCAG", "binding signal": "12800 fluorescence intensity (a.u.)"},
      {"sequence": "ATTTCACCACCACCGCCACGGCCTCTGCCTCTCGCTCTCTCGGAGTCACCTAGTGCAG", "binding signal": "8260 fluorescence intensity (a.u.)"},
      {"sequence": "GCTTTTTCCAAATATTTGTGAATTTGGTGTTTATTTATTCCGGAGTCACCTAGTGCAG", "binding signal": "10400 fluorescence intensity (a.u.)"},
      {"sequence": "CGTCACGATTAATTCTGCTATGCTTCTCGTCCTTCTTCCGCGGAGTCACCTAGTGCAG", "binding signal": "8330 fluorescence intensity (a.u.)"},
      {"sequence": "GTAGTGTATAACTACGACGCATTCCTTTCGCATGTACCCACGGAGTCACCTAGTGCAG", "binding signal": "8540 fluorescence intensity (a.u.)"}
    ]}
  ]
}
